Assay results from paper PMC3136172.

Chains of the proteins cited; added tags and fusions are not shown. A line that says so, or that is headed by a name, gives the form on record, which may keep a tag or linker.
RPA (full-length replication protein A) (human), one chain, as listed by the source, chain 2 of 3: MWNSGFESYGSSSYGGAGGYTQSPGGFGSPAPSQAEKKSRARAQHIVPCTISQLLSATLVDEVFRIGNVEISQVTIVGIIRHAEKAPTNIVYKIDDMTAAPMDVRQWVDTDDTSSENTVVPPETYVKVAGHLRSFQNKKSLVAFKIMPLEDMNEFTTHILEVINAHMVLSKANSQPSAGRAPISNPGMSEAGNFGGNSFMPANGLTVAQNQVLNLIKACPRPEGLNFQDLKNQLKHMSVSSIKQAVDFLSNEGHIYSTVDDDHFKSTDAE
RPA (full-length replication protein A) (human), one chain, as listed by the source, chain 1 of 3: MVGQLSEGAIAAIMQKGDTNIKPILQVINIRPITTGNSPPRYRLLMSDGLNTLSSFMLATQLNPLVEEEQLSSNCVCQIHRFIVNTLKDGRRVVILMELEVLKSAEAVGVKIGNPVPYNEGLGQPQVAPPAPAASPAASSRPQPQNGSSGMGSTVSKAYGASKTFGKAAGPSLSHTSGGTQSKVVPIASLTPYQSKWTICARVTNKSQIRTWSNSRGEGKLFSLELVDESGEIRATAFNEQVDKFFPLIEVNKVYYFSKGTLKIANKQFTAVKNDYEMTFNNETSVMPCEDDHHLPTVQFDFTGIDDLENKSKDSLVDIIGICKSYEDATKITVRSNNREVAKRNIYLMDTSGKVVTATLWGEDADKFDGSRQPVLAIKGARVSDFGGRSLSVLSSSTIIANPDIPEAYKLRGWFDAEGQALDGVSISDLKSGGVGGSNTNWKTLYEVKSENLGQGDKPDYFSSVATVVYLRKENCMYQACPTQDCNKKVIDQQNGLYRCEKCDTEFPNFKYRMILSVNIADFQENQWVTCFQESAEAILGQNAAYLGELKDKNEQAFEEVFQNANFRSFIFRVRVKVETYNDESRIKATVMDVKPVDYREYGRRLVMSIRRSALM
RPA-CDE-core, one chain, as listed by the source, chain 3 of 3: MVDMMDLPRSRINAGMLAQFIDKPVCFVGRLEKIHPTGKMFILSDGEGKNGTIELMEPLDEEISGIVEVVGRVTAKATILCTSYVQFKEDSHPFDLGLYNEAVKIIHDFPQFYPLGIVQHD

Key:
RPA-CDE-core = assay: CD titration (G4 unfolding); details: 25 mM Tris pH 7.5, 2 mM MgCl2, 0.5% inositol, 1 mM DTT, 100 mM NaCl or 100 mM KCl, 25 C, 1.4 uM DNA, protein:DNA ratio 0-5, recombinant protein, protein details: N-terminal His-tag, thrombin-cleaved, folded or branched DNA
[1] = test system: RPA (full-length replication protein A) (human); assay: CD titration (G4 unfolding); details: 25 mM Tris pH 7.5, 2 mM MgCl2, 0.5% inositol, 1 mM DTT, 100 mM NaCl or 100 mM KCl, 25 C, 1.4 uM DNA, protein:DNA ratio 0-5, recombinant protein, folded or branched DNA
[2] = 100 mM KCl, 2 mM Mg2+, incomplete unfolding at ratio 5
[3] = K+, TMPyP4, complete unfolding inhibited

Measured: binding result

TAGGGGAAGGGTTGGAGTGGGTT [Gq23]
binds more weakly: RPA-CDE-core; [2] | RPA-CDE-core; [3] | [1]; [2] | [1]; [3]

Construct, isoform or probe ends are uncertain for at least one entry. Weaker means in comparison with the reference protein, sequence or condition of that experiment.
